Values from PubChem BioAssay AID1259308 (NCATS, 2017).

Aim: 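Genes whose loss raises luciferase production in HEK293 cells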 (primary screen)
System: human HEK293 embryonic kidney cells stably expressing firefly luciferase (HEK-CMV-Luc2-Hygro)
Reagent: single siRNA against human genes, 0.8 pmol siRNA per well
Timing: 72 h
Measured: 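Luciferase light (ONE-Glo) measured on one replicate plate set and viability (CellTiter-Glo) on the other, scaled to a negative control siRNA, with robust z-scores and luciferase per cell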
Reading the numbers: total luciferase, z-score: higher = more reporter protein produced
Active means: 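Active when the median/MAD z-score for overall luciferase is greater than 3; a gene was taken forward for validation with new siRNAs if at least two of its three siRNAs passed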
Meaning of the calls: active = raised luciferase; inactive = no rise
This is a random part of about 59,000 deposited reagents. About 1,510 of them (2.6%) count as active. 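Calls use total luciferase alone and ignore viability, so some active siRNAs may act by altering cell number.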 Entries without a mark were called inactive. Reagents against one gene are numbered here. Further read-outs or replicates are left out here.

ADAMTS1 #1 — total luciferase, z-score: -0.815
ADAMTS1 #2 — total luciferase, z-score: 0.124
ADAMTS1 #3 — total luciferase, z-score: -0.697
CENPW #1 — total luciferase, z-score: -1.39
CENPW #2 — total luciferase, z-score: -0.701
CENPW #3 — total luciferase, z-score: -1.4
VGLL3 #1 — total luciferase, z-score: 1.08
VGLL3 #2 — total luciferase, z-score: 0.584
VGLL3 #3 — total luciferase, z-score: 2.89
CNN3P1 #1 — total luciferase, z-score: 0.351
CNN3P1 #2 — total luciferase, z-score: 4.04 (active)
CNN3P1 #3 — total luciferase, z-score: 0.993

Next part; the last 2 above are carried over.
CNN3P1 #2 — total luciferase, z-score: 4.04 (active)
CNN3P1 #3 — total luciferase, z-score: 0.993
BSND #1 — total luciferase, z-score: 1.56
BSND #2 — total luciferase, z-score: -0.241
BSND #3 — total luciferase, z-score: 1.98
OR51E2 #1 — total luciferase, z-score: -0.858
OR51E2 #2 — total luciferase, z-score: 1.03
OR51E2 #3 — total luciferase, z-score: 0.164
ACSM1 #1 — total luciferase, z-score: -0.316
ACSM1 #2 — total luciferase, z-score: 0.0498
ACSM1 #3 — total luciferase, z-score: 0.198
COMMD9 #1 — total luciferase, z-score: -0.828
COMMD9 #2 — total luciferase, z-score: 1.08
COMMD9 #3 — total luciferase, z-score: -1.21
COMMD9 #4 — total luciferase, z-score: 2.24
COMMD9 #5 — total luciferase, z-score: 0.237
COMMD9 #6 — total luciferase, z-score: 1.35
MAD2L1BP #1 — total luciferase, z-score: -0.11
MAD2L1BP #2 — total luciferase, z-score: -0.0372
MAD2L1BP #3 — total luciferase, z-score: 2.49
ST6GALNAC1 #1 — total luciferase, z-score: -0.4
ST6GALNAC1 #2 — total luciferase, z-score: 0.362
ST6GALNAC1 #3 — total luciferase, z-score: -0.229
